Measured values from PMC7370100, “In Vitro Assessment of the Genotoxic Hazard of Novel Hydroxamic Acid- and Benzamide-Type Histone Deacetylase Inhibitors (HDACi)” (International Journal of Molecular Sciences, 2020).

Legend:
Type in all cases: cell-based
[1] = system: IMR-32 neuroblastoma cells; experiment: Alamar blue assay (cell viability), IMR-32 cells; details: Homo sapiens
Experimental: (§1) V79 hamster lung cells, which are recommended in the OECD toxicology guidelines for hazard identification (i.e., cytotoxicity and genotoxicity) of chemicals, were purchased from the German Collection of Microorganisms and Cell Cultures (DSMZ, Braunschweig, Germany). They were cultured in Dulbecco´s modified Eagle medium and Ham´s F12 medium (DMEM/F12) (PromoCell, Heidelberg, Germany) containing 10% fetal calf serum at 37 °C in a humidified atmosphere containing 5% CO2. VC8 hamster cells were defective in DNA double-strand break (DSB) repair by homologous recombination (HR) due to the lack of functional BRCA2 protein [69, 70]. VC8 cells were provided by B. Kaina (Institute of Toxicology, Mainz, Germany). Nucleotide excision repair defective XPA and CSB deficient cells were also provided by B. Kaina and were described before. They were grown in DMEM containing 10% fetal calf serum. […]
(§2) Cell viability was determined using the Alamar blue assay, which reflected the mitochondrial activity. […] Afterwards, the Neutral red that was taken up by the cells was extracted (50% ethanol/1% of acetic acid, 15 min at room temperature (RT)) and absorbance (540 nm) was measured. […] Approximate IC50 (~IC50, see Supplementary Table S1) were calculated from the corresponding dose-response curves.

V79 hamster lung cells [2] = experiment: Neutral red assay (cytotoxicity), V79 cells
Experimental: as §1, §2

V79 hamster lung cells [3] = experiment: Alamar blue assay (cell viability), V79 cells
Experimental: as §1, §2

[4] = system: SH-SY5Y neuroblastoma cells; experiment: Neutral red assay (cytotoxicity), SH-SY5Y cells; details: Homo sapiens
Experimental: as §1, §2

[5] = system: IMR-32 neuroblastoma cells; experiment: Neutral red assay (cytotoxicity), IMR-32 cells; details: Homo sapiens
Experimental: as §1, §2

[6] = system: SH-SY5Y neuroblastoma cells; experiment: Alamar blue assay (cell viability), SH-SY5Y cells; details: Homo sapiens, 72 h, approximate IC50, read-out: IC50 - 72 h Treatment, SH-SY5Y
Experimental: as §1, §2

[7] = 24 h, approximate IC50, read-out: IC50 - 24 h Treatment, IMR-32
[8] = 72 h, approximate IC50, read-out: IC50 - 72 h Treatment, IMR-32

**Q.** For `O=C(CCCCCCC(=O)Nc1ccccc1)NO` [Vorinostat, vorinostat, reference compound], which IC50 [1, 7] is on record?
**A.** The IC50 was 5 µM.

**Q.** And the IC50 [1, 8]?
**A.** Its IC50 is 0.6 µM.

**Q.** And the IC50 (V79 hamster lung cells [2]; 24 h, approximate IC50, read-out: IC50 - 24 h Treatment, V79)?
**A.** The IC50 was 8 µM.

**Q.** What about the IC50 (V79 hamster lung cells [2]; 72 h, approximate IC50, read-out: IC50 - 72 h Treatment, V79) of the same compound?
**A.** Its IC50 is 1 µM.

**Q.** What about the IC50 (V79 hamster lung cells [3]; V79, 24 h after drug treatment (values match Alamar blue data of Table S1), read-out: Viability (IC50) 24 h) of the same compound?
**A.** The IC50 was 10 µM.

**Q.** And the IC50 (V79 hamster lung cells [3]; V79, 72 h after drug treatment (values match Alamar blue data of Table S1), read-out: Viability (IC50) 72 h)?
**A.** The IC50 was 5 µM.

**Q.** What about the IC50 ([4]; 24 h, approximate IC50, read-out: IC50 - 24 h Treatment, SH-SY5Y) of the same compound?
**A.** The IC50 was 50 µM.

**Q.** And the IC50 ([4]; 72 h, approximate IC50, read-out: IC50 - 72 h Treatment, SH-SY5Y)?
**A.** The IC50 was 2 µM.

**Q.** And the IC50 [5, 7]?
**A.** Its IC50 is over 50 µM.

**Q.** What about the IC50 [5, 8] of the same compound?
**A.** The IC50 was 0.6 µM.

**Q.** And the IC50 [6]?
**A.** Its IC50 is 1 µM.
